These are yes or no findings as the source states them, for the method shown. Binding seen in cells or lysates may run through a third protein. Some results given as binding are weak or reduced against the parent protein; the word gives no strength.

Protein sequences, listed by entry. Tags and fused reporters are not part of them.
UniProt P21796: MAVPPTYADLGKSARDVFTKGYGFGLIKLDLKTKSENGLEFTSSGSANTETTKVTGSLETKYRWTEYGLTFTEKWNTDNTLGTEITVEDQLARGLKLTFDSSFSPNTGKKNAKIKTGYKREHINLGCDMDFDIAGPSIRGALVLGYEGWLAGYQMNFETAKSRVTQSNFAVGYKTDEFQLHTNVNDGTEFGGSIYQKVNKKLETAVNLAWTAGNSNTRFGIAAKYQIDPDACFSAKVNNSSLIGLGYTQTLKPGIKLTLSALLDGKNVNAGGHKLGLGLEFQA
UniProt P63172: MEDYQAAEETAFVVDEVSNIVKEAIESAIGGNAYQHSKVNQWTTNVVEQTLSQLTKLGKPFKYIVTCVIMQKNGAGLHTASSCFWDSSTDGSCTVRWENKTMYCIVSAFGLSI
UniProt O60260: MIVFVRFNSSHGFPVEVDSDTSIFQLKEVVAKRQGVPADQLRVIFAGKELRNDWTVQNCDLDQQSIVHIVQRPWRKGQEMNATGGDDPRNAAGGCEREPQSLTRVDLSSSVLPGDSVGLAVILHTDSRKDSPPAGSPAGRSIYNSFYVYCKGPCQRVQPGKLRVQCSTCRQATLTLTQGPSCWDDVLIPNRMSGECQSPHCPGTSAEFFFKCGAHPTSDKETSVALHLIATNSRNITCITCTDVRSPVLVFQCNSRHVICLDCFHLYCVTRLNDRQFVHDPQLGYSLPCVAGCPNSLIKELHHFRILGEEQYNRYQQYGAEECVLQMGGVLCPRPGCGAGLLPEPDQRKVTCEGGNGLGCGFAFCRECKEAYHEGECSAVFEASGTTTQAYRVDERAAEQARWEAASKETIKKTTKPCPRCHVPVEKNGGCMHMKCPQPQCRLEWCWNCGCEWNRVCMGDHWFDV

From publication PMC10245490 come the findings set out here.

Test [1] addresses voltage-dependent anion channel 1 (VDAC1) (human (endogenous in MCF-7 and MDA-MB-468)) (UniProt P21796). Put plainly: co-IP; endogenous proteins in MCF-7 and MDA-MB-468 breast cancer cells; which protein was precipitated is not given.
The target is the same in test [2]. Description: co-IP; MCF-7 and MDA-MB-468 breast cancer cells, also with stable DYNLT1 shRNA knock-down or control shRNA; which protein was precipitated is not given.

Turning to “DYNLT1 (Dynein Light Chain Tctex-Type 1) (from UniProt P63172 1-113)”, in test [1], the binding entry is “binds”.

Consider “E3 ligase Parkin (from UniProt O60260 1-465) (enzyme)”, for which the binding entry in test [2] is “binds”.
